Experimental data from PubChem BioAssay AID2685 (National Center for Advancing Translational Sciences (NCATS), 2010).
This is one part of the list. Further columns of the screen follow, without active or inactive calls. Compounds called inactive in the main read-out are mostly missing here. Potencies come from curve fits of mixed quality, noted in brackets.

Assay: qHTS Assay for Lipid Storage Modulators in Drosophila S3 Cells;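 as to cell number change: cells counted by Cell Tracker Red CMTPX staining in the red channel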
Settings: BODIPY lipid droplet fluorescence, 18-24 h; for cell number change: measured here: cell count max response, cells fed with added oleic acid
How it was run: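 Drosophila S3 cells loaded with oleic acid (400 uM, as added) and compounds at several concentrations; lipid droplets imaged by 488-nm laser-scanning cytometry, 500–530 nm intensity and object ratio to cell channel. Percent activity normalized to 20 uM Triacsin C.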

[1] = measured here: lipid fluorescence (Fed channel) AC50, cells fed with added oleic acid
[2] = measured here: cell number channel AC50, cells fed with added oleic acid

| SMILES | cell number change [%] | AC50 [1] | AC50 [2] |
| --- | --- | --- | --- |
| O=C(NCc1ccco1)c1sc2ccccc2c1Cl | -20.4 | 7.31 µM [falling, single point] |  |
| O=C(O)CCC(=O)Nc1ccc(C(=O)N2CCCCC2)cc1 | -5.16 | 2.06 µM [falling, partial curve] |  |
| COc1ccc(-c2nc3ccccc3c(=O)n2CCOc2cc(C)ccc2C)cc1 |  | 1.03 µM [rising, full curve] | 0.731 µM [rising, partial curve] |
| O=C(Nc1ccccc1Cl)c1cccc(NC(=O)C2C3CC4OC(=O)C2C4C3)c1 (stereo unspecified) | 61 |  | 0.259 µM [rising, full curve] |
| CCc1nn(CC(=O)NCCCc2ccccc2)c(=O)c2cc3cc(F)ccc3n12 | -4.2 | 29.1 µM [rising, single point] |  |
| CCC(Sc1nc(N)c(NC(=O)c2ccc(Br)o2)c(=O)[nH]1)C(=O)O (stereo unspecified) | 3.68 | 6.51 µM [rising, single point] |  |
| O=C(COC(=O)Cc1cccs1)Nc1ccccc1 | -3.3 | 0.651 µM [rising, single point] |  |
| COc1ccc(C)cc1NC(=O)CSc1nnc(-c2ccc(C)cc2)o1 | 46.7 | 7.31 µM [rising, partial curve, poor fit] | 7.31 µM [rising, partial curve, poor fit] |
| COc1ccc(CC(C)Nc2cccc(SC)c2)cc1 (stereo unspecified) |  | 29.1 µM [rising, single point] |  |
| CCn1c(C)cc(/C=C2/SC(=O)N(CC(=O)N3CCCC3)C2=O)c1C | 5.13 | 0.103 µM [falling, partial curve, poor fit] |  |
| CN(C)c1ccc(C(CNC(=O)c2ccccc2Br)c2c[nH]c3ccccc23)cc1 (stereo unspecified) | -6.2 | 3.66 µM [falling, full curve, poor fit] |  |
| CN(CC(=O)Nc1ccccc1C(F)(F)F)C(=O)Cc1ccc(S(=O)(=O)N2CCOCC2)s1 | 39.8 |  | 5.8 µM [rising, full curve] |
| Nc1nonc1-n1nnc(C(=O)N/N=C/c2ccc(Cl)cc2Cl)c1CN1CCCC1 | -58.6 | 29.1 µM [falling, single point] |  |
| COc1cc(C(=O)Oc2ccc(/C=N/NC(=O)c3ccncc3)cc2)cc(OC)c1OC | -6.93 | 6.51 µM [rising, single point] |  |
| CC(Oc1cccnc1[N+](=O)[O-])C(=O)Nc1ccc(Cl)cn1 (stereo unspecified) | -13.7 | 29.1 µM [falling, single point] |  |
| CC(C)(C)C(=O)/C(C#N)=C/c1cccs1 | 16.2 |  |  |
| CC(C)c1ccc(NC(=S)NN2C(C)CCCC2C)cc1 (stereo unspecified) |  | 6.51 µM [rising, single point] | 3.26 µM [rising, single point] |
| COc1ccc(NC(=O)C(=O)NNC(=O)c2ccc(Cl)cc2Cl)cc1 | 3.24 | 29.1 µM [rising, single point] |  |
| CN1CCN(S(=O)(=O)c2ccc(NC(=S)NC(=O)C3CCC3)cc2)CC1 | 16.3 | 6.51 µM [rising, single point] | 6.51 µM [rising, single point] |

| SMILES | cell number change [%] | AC50 [1] | AC50 [2] |
| --- | --- | --- | --- |
| c1ccc(OCc2cc(-c3ccccc3)no2)cc1 | 42.9 | 29.1 µM [rising, single point] | 20.6 µM [rising, single point] |
| N#Cc1ccc(CN2CCN(C(=O)c3cc(C4CC4)nn3-c3ccccc3)CC2)cc1 | -22.5 | 29.1 µM [falling, single point] |  |
| COC(=O)c1c(C(=O)OC)c2cc(C)ccn2c1Cl | -18.3 |  |  |
| NS(=O)(=O)c1ccc(NC(=O)CCCCCN2C(=O)c3ccccc3C2=O)cc1 |  | 29.1 µM [falling, single point] |  |
| CCOC(=O)c1ccc(NC(=O)CN(C)S(=O)(=O)c2ccc(Br)s2)cc1 | 14.2 | 7.31 µM [rising, partial curve] |  |
| COc1cc(/C=C2/C(=O)NN(c3ccc(Cl)cc3)C2=O)cc(OC)c1O | 38 | 10.3 µM [rising, partial curve] | 0.00517 µM [rising, full curve, poor fit] |
| COc1ccc(C2C3=C(CC(C)(C)CC3=O)Nc3c2c(=O)[nH]c2nc(C)nn32)cc1 (stereo unspecified) | 33.3 |  | 0.0291 µM [rising, full curve] |
| O=S(=O)(c1ccc(Cl)cc1)N1CCCC(C(F)(F)F)C1 (stereo unspecified) | 91.1 |  | 29.1 µM [rising, single point] |
| Cc1cc(C)cc(NC(=O)N2CCC(NC(=O)c3ccco3)CC2)c1 | 11.7 | 9.2 µM [rising, partial curve, poor fit] |  |
| Cc1cc(Br)ccc1NC(=O)CNC(=O)c1ccc(-n2cncn2)c([N+](=O)[O-])c1 | 3.6 | 29.1 µM [rising, single point] |  |
| COc1ccc(C(=O)NC(=S)Nc2cccc(Cl)c2N2CCOCC2)cc1[N+](=O)[O-] | -16.6 | 0.058 µM [falling, full curve] |  |
| CC(=O)OCC(=O)Nc1ccc(Br)c(C)c1 | -5.39 |  |  |
| CC(C)CN(C(=O)CN(C)C(=O)Cc1ccc(Cl)cc1)c1c(N)n(CC(C)C)c(=O)[nH]c1=O |  | 0.092 µM [rising, full curve, poor fit] |  |
| Cc1cccc(N2C(=O)C(CC(=O)Nc3cccc(F)c3)N(CCc3ccncc3)C2=O)c1 (stereo unspecified) | 18.6 |  | 0.103 µM [rising, full curve, poor fit] |
| CCOC(=O)Cc1nnc(Nc2ccc(C)cc2C)c2ccccc12 | -3.29 | 0.651 µM [rising, partial curve, poor fit] |  |
| O=C(NNS(=O)(=O)c1ccc2ccccc2c1)c1cccnc1 | -7.95 | 5.8 µM [rising, single point] |  |
| CCc1cc[n+](-c2nc3ccccc3nc2[N-]S(=O)(=O)c2ccc(Br)s2)cc1 | -35.1 | 13 µM [falling, partial curve] | 16.4 µM [falling, partial curve] |
| COc1ccccc1COCC(O)CNCC1(N2CCCCC2)CCCCC1 (stereo unspecified) | -52.2 | 29.1 µM [falling, single point] | 4.61 µM [falling, full curve] |
| O=C(NNC(=O)c1ccccn1)c1cccc([N+](=O)[O-])c1 | 26 |  | 0.411 µM [rising, full curve, poor fit] |

| SMILES | cell number change [%] | AC50 [1] | AC50 [2] |
| --- | --- | --- | --- |
| CCOc1ccccc1N1Cc2ccccc2C1 | 37.6 |  | 13 µM [rising, single point] |
| Cc1cccc(C)c1NC(=O)C[N+](C)(C)CC(O)COc1cccc2ccccc12 (stereo unspecified) | -9.84 | 5.8 µM [falling, single point] | 7.31 µM [falling, single point] |
| Cc1ccc(NS(=O)(=O)c2ccc(OCC(=O)NCc3cccnc3)cc2)cc1 | 15.5 | 3.26 µM [rising, full curve, poor fit] |  |
| CCC1C(=O)c2ccccc2N(C)C1=O (stereo unspecified) | 15 | 20.6 µM [rising, single point] | 3.66 µM [falling, single point] |
| Cc1ccc(-c2cnc3n2CCCCC3)cc1 | -11 | 0.231 µM [rising, full curve] | 0.651 µM [rising, full curve] |
| CCOc1ccc(NC(=O)CCn2c(=O)[nH]c3ccsc3c2=O)cc1 | -4.42 | 0.651 µM [falling, partial curve, poor fit] | 6.51 µM [falling, single point] |
| COc1cccc(N2CC(=O)N(NC(=O)c3sc4nc(C)cc(C)c4c3N)CC2=O)c1 | 25.1 | 2.06 µM [rising, full curve, poor fit] |  |
| OCCN(CCCn1c(C(F)(F)F)nc2ccccc21)c1nc(CN2CCCCC2)cs1 | 24 | 10.3 µM [falling, single point] |  |
| CC1CCN(S(=O)(=O)c2ccc(NC(=O)C3CC3)cc2)CC1 | 5.71 |  |  |
| COc1ccc(/C(O)=C2/C(=O)C(=O)N(CCN(C)C)C2c2cccnc2)cc1OC (stereo unspecified) | 57.3 | 0.731 µM [rising, single point] | 29.1 µM [rising, single point] |
| Cc1ccc2c(c1)N(CCC(=O)NCc1ccc3c(c1)OCO3)C(=O)CO2 | 6.03 | 2.06 µM [falling, partial curve] |  |
| O=C(Cn1c(=O)c2sccc2n(Cc2cccc([N+](=O)[O-])c2)c1=O)NCCc1ccccc1 | 13.9 | 10.3 µM [rising, partial curve] |  |
| O=C(c1c[nH]c(C(=O)C(Cl)(Cl)Cl)c1)c1ccc(F)cc1Cl | -12 | 1.16 µM [falling, full curve, poor fit] | 0.517 µM [falling, single point] |
| Cc1cc2nccc(-c3ccc(Cl)c([N+](=O)[O-])c3)n2n1 | 26.2 |  |  |
| Cc1csc(SCC(=O)N2CCN(S(=O)(=O)c3ccccc3)CC2)n1 | 2.23 |  |  |
| COc1cc(CN(C2CCCCC2C)S(=O)(=O)c2ccc(S(=O)(=O)NC3CC3)cc2)cc(OC)c1OC (stereo unspecified) | 3.34 | 18.4 µM [falling, single point] |  |
| CC1(C)NC(=O)N(CC(O)COc2cccc(F)c2)C1=O (stereo unspecified) | -34.7 | 0.82 µM [falling, full curve] | 23.1 µM [falling, single point] |
| CCOC(=O)Cn1c(=O)oc2cc(S(=O)(=O)Nc3cc(Cl)ccc3OC)ccc21 | 8.75 | 4.61 µM [rising, partial curve, poor fit] |  |

Look-ups from the results shown.
`CCOc1ccc(NC(=O)CCn2c(=O)[nH]c3ccsc3c2=O)cc1` | cell number change [%]: -4.42
`O=C(c1c[nH]c(C(=O)C(Cl)(Cl)Cl)c1)c1ccc(F)cc1Cl` | AC50 [2]: 0.517 µM [falling, single point]
`OCCN(CCCn1c(C(F)(F)F)nc2ccccc21)c1nc(CN2CCCCC2)cs1` | cell number change [%]: 24

Arranged by SMILES length (ascending): some entries from above.

| SMILES | cell number change [%] | AC50 [1] | AC50 [2] |
| --- | --- | --- | --- |
| OCCN(CCCn1c(C(F)(F)F)nc2ccccc21)c1nc(CN2CCCCC2)cs1 | 24 | 10.3 µM [falling, single point] |  |
| COc1cccc(N2CC(=O)N(NC(=O)c3sc4nc(C)cc(C)c4c3N)CC2=O)c1 | 25.1 | 2.06 µM [rising, full curve, poor fit] |  |
| O=C(Cn1c(=O)c2sccc2n(Cc2cccc([N+](=O)[O-])c2)c1=O)NCCc1ccccc1 | 13.9 | 10.3 µM [rising, partial curve] |  |
